Data on 2 substances can be found in publication PMC5931457.

No constants are given. Whether binding was seen depends on the method and setting. In cells and extracts the contact can be indirect. Binding can be weak; no strength is given. Tags and fused reporters may be left off the sequences shown.

In this test the target is T1, MYC-tagged full-length RIPK4 (human) (UniProt P57078).
T1 sequence: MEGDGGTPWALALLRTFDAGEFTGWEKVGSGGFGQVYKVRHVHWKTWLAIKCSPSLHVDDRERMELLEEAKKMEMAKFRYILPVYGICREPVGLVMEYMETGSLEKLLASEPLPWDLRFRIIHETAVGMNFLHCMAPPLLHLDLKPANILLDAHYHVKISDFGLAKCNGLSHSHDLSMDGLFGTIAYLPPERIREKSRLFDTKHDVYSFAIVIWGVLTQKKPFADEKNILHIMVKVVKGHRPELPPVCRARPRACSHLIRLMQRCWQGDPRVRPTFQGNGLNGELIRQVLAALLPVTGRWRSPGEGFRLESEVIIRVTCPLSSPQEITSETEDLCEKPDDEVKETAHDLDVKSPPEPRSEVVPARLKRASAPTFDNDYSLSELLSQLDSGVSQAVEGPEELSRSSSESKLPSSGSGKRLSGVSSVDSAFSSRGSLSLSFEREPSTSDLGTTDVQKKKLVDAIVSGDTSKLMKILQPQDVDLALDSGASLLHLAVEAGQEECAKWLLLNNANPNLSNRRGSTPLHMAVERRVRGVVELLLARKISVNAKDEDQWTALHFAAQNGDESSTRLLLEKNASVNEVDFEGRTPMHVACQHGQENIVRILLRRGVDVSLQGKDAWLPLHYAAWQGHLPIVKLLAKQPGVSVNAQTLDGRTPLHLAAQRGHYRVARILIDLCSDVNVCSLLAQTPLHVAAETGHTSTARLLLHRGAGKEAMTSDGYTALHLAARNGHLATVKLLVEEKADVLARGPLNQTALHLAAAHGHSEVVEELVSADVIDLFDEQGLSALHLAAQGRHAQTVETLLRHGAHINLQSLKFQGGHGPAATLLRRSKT
Kind of test: co-IP; FLAG-tagged A20 and MYC-tagged RIPK4 constructs expressed in RKO cells; immunoprecipitation with anti-MYC, blot anti-FLAG (Fig 3C also anti-FLAG, blot anti-MYC); lysis in 1% Triton X-100, 150mM NaCl, 10% Glycerol.

On to “FLAG-tagged A20 C-terminal domain (human) (domain or fragment)”, for which the binding result is on record as “binds”. For “FLAG-tagged A20 N-terminal domain (human) (domain or fragment)”, the binding entry is given as “binds”.
